Experimental data taken from publication PMC7352305.
No constants are given. Whether binding was seen depends on the method and setting. In cells and extracts the contact can be indirect. Some entries that bind do so weakly or less than the wild type.

Protein sequences, listed by entry. Tags and fused reporters are not part of them. Residues count along the entry.
UniProt P17948, residues 27-1338: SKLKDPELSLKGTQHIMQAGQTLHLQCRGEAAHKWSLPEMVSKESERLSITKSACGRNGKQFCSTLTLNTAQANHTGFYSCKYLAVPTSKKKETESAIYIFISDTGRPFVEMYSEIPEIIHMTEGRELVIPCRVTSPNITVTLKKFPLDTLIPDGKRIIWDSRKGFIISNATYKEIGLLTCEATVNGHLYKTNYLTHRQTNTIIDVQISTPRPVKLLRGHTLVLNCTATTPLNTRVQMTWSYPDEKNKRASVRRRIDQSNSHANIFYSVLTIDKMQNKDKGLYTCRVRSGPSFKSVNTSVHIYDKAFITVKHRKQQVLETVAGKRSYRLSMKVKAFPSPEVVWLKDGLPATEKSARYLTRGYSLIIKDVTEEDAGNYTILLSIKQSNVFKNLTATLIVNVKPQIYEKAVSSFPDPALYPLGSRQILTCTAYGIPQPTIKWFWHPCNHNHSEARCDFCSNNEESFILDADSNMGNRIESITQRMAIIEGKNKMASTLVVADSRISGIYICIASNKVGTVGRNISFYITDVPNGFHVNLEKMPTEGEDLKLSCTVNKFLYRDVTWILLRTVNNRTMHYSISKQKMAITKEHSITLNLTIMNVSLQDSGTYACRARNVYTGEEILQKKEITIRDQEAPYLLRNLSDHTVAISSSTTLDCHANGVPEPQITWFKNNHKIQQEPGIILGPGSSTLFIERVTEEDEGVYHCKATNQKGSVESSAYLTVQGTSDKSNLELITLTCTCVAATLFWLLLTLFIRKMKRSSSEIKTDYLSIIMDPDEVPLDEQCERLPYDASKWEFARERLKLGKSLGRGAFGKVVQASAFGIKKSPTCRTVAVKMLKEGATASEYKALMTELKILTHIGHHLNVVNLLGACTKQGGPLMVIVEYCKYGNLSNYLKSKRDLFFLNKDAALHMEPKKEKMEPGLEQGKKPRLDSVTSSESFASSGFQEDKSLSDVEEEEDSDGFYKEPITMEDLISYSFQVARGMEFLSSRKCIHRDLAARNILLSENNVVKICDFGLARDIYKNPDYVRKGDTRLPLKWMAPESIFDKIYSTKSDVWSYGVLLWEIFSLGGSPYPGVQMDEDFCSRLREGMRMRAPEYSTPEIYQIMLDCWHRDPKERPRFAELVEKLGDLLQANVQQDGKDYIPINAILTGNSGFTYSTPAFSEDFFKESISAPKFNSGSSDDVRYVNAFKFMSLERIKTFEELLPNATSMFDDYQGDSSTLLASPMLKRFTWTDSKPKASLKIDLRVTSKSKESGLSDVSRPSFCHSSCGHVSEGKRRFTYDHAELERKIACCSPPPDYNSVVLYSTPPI

T1: Vav1 (precipitated with Vav1 antibody in the co-IP of Figure 2C) (UniProt P15498)
T1 sequence: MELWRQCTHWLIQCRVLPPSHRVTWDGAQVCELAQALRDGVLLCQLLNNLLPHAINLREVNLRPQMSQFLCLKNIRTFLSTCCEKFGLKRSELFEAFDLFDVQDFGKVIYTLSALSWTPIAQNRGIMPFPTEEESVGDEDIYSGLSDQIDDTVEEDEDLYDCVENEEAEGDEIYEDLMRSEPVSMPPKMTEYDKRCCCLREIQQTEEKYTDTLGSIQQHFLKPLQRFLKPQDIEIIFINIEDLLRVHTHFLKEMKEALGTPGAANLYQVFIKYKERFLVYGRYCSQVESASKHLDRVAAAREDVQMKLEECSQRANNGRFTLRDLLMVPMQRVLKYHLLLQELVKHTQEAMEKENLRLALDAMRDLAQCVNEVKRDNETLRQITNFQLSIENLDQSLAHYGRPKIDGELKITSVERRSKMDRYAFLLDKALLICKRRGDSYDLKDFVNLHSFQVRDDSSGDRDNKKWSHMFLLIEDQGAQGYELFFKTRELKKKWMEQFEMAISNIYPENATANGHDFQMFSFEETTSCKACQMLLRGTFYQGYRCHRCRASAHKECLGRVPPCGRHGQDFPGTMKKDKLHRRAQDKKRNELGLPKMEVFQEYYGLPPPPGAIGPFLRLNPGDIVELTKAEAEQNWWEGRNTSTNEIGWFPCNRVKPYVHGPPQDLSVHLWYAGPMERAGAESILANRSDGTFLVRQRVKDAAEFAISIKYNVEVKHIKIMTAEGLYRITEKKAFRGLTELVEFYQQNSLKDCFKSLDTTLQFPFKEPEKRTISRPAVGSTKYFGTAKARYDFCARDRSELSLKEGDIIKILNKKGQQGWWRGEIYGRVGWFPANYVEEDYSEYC


What was measured:
[1] = target: T1, Vav1 (precipitated with Vav1 antibody in the co-IP of Figure 2C); experiment: co-IP; cells overexpressing wild type or ΔYKEP VEGFR1; precipitation with Vav1 antibody; blot for Vav1 and VEGFR1
[2] = target: vascular endothelial growth factor receptor 1 (VEGFR1) (human (endogenous in HUVEC)) (UniProt P17948); experiment: co-IP; anti-VEGFR1 antibody or control IgG on HUVEC cell lysate, protein A/G magnetic beads, overnight; blot for Vav1 and VEGFR1

| binding [1] | binding [2] | Molecule |
| --- | --- | --- |
| binds |  | Overexpressed wild type VEGFR1 (from UniProt P17948 27-1338) (receptor) |
|  | binds | Vav1 (protein, UniProt P15498 1-845) MELWRQCTHWLIQCRVLPPSHRVTWDGAQVCELAQALRDGVLLCQLLNNLLPHAINLREVNLRPQMSQFLCLKNIRTFLSTCCEKFGLKRSELFEAFDLFDVQDFGKVIYTLSALSWTPIAQNRGIMPFPTEEESVGDEDIYSGLSDQIDDTVEEDEDLYDCVENEEAEGDEIYEDLMRSEPVSMPPKMTEYDKRCCCLREIQQTEEKYTDTLGSIQQHFLKPLQRFLKPQDIEIIFINIEDLLRVHTHFLKEMKEALGTPGAANLYQVFIKYKERFLVYGRYCSQVESASKHLDRVAAAREDVQMKLEECSQRANNGRFTLRDLLMVPMQRVLKYHLLLQELVKHTQEAMEKENLRLALDAMRDLAQCVNEVKRDNETLRQITNFQLSIENLDQSLAHYGRPKIDGELKITSVERRSKMDRYAFLLDKALLICKRRGDSYDLKDFVNLHSFQVRDDSSGDRDNKKWSHMFLLIEDQGAQGYELFFKTRELKKKWMEQFEMAISNIYPENATANGHDFQMFSFEETTSCKACQMLLRGTFYQGYRCHRCRASAHKECLGRVPPCGRHGQDFPGTMKKDKLHRRAQDKKRNELGLPKMEVFQEYYGLPPPPGAIGPFLRLNPGDIVELTKAEAEQNWWEGRNTSTNEIGWFPCNRVKPYVHGPPQDLSVHLWYAGPMERAGAESILANRSDGTFLVRQRVKDAAEFAISIKYNVEVKHIKIMTAEGLYRITEKKAFRGLTELVEFYQQNSLKDCFKSLDTTLQFPFKEPEKRTISRPAVGSTKYFGTAKARYDFCARDRSELSLKEGDIIKILNKKGQQGWWRGEIYGRVGWFPANYVEEDYSEYC |
